No constants are given. Whether binding was seen depends on the method and setting. In cells and extracts the contact can be indirect. Here binding means that the protein was enriched with, or labelled near, the bait; the list need not be complete. Tags and fused reporters may be left off the sequences shown.

Amino acid sequences for entries named in this document (tags omitted). A change or cut given only in a name is not applied to a line headed by its entry.
UniProt A0A286ZPL5: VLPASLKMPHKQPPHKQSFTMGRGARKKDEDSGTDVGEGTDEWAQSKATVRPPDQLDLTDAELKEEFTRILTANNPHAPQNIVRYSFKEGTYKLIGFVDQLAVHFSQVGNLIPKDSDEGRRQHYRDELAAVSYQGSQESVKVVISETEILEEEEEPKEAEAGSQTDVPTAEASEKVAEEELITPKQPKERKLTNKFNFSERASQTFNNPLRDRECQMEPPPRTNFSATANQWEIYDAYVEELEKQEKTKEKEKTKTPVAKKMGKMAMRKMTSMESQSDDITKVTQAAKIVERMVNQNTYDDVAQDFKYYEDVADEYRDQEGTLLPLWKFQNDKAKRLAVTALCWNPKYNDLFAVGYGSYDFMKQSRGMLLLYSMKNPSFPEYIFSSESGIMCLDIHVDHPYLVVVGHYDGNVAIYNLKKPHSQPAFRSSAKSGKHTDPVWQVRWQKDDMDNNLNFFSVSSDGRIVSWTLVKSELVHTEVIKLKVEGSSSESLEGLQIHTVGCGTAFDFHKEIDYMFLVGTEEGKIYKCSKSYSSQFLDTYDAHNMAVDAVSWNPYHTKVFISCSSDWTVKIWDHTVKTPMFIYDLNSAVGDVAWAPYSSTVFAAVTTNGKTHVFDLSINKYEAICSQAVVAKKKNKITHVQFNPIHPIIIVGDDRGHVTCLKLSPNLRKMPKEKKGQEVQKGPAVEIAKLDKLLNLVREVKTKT
UniProt A0A4X1T4U3: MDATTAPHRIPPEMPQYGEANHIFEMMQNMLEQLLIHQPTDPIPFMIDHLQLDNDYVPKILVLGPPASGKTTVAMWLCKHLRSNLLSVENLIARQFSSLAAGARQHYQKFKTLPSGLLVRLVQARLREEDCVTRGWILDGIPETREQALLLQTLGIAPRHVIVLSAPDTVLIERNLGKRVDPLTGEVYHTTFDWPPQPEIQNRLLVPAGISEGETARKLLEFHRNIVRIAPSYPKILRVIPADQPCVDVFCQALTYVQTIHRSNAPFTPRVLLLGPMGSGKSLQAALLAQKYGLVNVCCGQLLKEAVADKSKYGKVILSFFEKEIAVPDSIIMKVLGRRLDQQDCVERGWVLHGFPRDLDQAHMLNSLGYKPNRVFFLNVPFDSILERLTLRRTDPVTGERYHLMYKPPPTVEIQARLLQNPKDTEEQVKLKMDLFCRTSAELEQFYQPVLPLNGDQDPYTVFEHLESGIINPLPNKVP
UniProt F1RKB1: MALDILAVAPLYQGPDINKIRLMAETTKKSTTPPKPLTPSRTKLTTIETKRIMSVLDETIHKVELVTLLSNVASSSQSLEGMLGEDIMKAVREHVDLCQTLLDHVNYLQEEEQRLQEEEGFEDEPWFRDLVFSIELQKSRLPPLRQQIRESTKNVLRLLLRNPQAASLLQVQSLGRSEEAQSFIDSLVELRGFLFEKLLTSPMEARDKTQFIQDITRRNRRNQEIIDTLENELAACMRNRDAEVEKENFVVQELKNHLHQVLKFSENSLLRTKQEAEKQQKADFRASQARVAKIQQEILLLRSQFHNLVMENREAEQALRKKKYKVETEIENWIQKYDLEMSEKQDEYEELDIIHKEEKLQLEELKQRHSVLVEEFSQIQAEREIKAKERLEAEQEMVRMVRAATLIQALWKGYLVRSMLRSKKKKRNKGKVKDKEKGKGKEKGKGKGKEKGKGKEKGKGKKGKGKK

The target of this assay is T1, CFAP52 (cilia and flagella associated protein 52), native porcine (pig (endogenous in porcine respiratory cells)) (UniProt F1SS88).
T1 sequence: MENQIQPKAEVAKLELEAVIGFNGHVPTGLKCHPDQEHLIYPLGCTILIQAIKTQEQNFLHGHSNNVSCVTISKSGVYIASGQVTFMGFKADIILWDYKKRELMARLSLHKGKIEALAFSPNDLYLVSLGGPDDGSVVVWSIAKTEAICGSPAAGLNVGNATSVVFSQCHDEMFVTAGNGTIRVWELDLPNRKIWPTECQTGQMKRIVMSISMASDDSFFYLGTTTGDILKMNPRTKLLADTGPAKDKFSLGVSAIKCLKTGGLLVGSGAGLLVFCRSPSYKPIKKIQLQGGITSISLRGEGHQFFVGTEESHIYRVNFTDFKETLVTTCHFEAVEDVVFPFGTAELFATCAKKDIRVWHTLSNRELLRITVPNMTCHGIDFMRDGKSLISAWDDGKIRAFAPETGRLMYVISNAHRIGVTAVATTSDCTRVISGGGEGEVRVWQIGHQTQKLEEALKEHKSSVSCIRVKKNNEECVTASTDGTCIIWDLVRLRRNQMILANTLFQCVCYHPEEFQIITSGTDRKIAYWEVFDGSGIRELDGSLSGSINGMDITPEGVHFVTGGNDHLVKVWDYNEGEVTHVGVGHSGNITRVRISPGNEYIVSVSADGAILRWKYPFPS
Put plainly: affinity purification with mass spectrometry; native CFAP52 immunoprecipitates of isolated porcine respiratory cells (PRC) analysed by MS; three independent experiments.
For “DNAI1, native porcine (from UniProt A0A286ZPL5 1-704)”, the binding result was “binds”.

For the substance “adenylate kinase 8 (AK8), native porcine (from UniProt A0A4X1T4U3 1-479) (enzyme)”, the binding result is recorded as “binds”.

Turning to “dynein regulatory complex protein IQCD, native porcine (from UniProt F1RKB1)”, the binding entry is given as “binds”.

These data come from article PMC7606486, “CFAP45 deficiency causes situs abnormalities and asthenospermia by disrupting an axonemal adenine nucleotide homeostasis module” (Nature Communications, 2020).
